The term IC50 denotes the concentration needed to halve the response being measured.

Data on one molecule can be found in publication PMC4552448 (Journal of medicinal chemistry, 2015).

This assay has as its system MCF-7 human breast carcinoma cells. The assay is described as follows: Growth inhibition of MCF-7 cells. It counts as cell-based. The following applies: MCF7, 96 h, read-out: MCF-7 IC50 ± SD.

Turning to `COc1cc2c(c(OC)c1OC)-c1ccc(OC)c(=O)cc1[C@@H](NC(C)=O)CC2` [compound 1, Colchicine], the IC50 was 5 ± 1 nM.
